First the molecules themselves.
T1: Drosophila Cup (Drosophila) (UniProt Q9VMA3)
T1 sequence: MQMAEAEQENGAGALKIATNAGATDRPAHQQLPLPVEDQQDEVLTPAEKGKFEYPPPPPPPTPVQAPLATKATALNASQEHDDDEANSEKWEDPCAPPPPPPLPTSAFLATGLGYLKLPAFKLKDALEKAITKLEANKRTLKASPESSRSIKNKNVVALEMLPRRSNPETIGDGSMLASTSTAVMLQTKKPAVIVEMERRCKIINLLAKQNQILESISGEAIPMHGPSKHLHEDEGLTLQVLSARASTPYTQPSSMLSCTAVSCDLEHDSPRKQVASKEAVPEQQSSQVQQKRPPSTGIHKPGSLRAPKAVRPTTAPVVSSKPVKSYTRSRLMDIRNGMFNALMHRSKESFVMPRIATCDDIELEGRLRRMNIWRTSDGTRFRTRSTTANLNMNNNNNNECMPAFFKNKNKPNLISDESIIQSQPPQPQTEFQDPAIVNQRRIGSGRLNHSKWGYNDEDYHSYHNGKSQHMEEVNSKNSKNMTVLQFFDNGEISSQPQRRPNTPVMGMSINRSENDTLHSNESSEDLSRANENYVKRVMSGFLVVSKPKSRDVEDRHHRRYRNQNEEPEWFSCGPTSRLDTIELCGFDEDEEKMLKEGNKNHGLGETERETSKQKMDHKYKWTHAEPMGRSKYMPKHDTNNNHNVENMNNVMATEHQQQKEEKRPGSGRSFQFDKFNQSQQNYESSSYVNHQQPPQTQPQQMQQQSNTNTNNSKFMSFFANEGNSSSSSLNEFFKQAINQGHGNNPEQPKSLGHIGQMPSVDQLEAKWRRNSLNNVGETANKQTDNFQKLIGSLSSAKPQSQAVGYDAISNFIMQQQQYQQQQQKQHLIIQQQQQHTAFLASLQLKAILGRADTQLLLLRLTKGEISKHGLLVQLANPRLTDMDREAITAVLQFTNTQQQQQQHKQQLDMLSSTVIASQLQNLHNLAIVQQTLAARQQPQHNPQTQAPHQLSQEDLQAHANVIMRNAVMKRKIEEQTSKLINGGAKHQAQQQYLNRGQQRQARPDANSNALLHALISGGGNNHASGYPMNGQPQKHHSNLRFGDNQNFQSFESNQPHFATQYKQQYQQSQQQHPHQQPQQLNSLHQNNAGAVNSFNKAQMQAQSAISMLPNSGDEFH

By UniProt entry, the sequences of proteins in these tests, tags left out.
UniProt A8DY81: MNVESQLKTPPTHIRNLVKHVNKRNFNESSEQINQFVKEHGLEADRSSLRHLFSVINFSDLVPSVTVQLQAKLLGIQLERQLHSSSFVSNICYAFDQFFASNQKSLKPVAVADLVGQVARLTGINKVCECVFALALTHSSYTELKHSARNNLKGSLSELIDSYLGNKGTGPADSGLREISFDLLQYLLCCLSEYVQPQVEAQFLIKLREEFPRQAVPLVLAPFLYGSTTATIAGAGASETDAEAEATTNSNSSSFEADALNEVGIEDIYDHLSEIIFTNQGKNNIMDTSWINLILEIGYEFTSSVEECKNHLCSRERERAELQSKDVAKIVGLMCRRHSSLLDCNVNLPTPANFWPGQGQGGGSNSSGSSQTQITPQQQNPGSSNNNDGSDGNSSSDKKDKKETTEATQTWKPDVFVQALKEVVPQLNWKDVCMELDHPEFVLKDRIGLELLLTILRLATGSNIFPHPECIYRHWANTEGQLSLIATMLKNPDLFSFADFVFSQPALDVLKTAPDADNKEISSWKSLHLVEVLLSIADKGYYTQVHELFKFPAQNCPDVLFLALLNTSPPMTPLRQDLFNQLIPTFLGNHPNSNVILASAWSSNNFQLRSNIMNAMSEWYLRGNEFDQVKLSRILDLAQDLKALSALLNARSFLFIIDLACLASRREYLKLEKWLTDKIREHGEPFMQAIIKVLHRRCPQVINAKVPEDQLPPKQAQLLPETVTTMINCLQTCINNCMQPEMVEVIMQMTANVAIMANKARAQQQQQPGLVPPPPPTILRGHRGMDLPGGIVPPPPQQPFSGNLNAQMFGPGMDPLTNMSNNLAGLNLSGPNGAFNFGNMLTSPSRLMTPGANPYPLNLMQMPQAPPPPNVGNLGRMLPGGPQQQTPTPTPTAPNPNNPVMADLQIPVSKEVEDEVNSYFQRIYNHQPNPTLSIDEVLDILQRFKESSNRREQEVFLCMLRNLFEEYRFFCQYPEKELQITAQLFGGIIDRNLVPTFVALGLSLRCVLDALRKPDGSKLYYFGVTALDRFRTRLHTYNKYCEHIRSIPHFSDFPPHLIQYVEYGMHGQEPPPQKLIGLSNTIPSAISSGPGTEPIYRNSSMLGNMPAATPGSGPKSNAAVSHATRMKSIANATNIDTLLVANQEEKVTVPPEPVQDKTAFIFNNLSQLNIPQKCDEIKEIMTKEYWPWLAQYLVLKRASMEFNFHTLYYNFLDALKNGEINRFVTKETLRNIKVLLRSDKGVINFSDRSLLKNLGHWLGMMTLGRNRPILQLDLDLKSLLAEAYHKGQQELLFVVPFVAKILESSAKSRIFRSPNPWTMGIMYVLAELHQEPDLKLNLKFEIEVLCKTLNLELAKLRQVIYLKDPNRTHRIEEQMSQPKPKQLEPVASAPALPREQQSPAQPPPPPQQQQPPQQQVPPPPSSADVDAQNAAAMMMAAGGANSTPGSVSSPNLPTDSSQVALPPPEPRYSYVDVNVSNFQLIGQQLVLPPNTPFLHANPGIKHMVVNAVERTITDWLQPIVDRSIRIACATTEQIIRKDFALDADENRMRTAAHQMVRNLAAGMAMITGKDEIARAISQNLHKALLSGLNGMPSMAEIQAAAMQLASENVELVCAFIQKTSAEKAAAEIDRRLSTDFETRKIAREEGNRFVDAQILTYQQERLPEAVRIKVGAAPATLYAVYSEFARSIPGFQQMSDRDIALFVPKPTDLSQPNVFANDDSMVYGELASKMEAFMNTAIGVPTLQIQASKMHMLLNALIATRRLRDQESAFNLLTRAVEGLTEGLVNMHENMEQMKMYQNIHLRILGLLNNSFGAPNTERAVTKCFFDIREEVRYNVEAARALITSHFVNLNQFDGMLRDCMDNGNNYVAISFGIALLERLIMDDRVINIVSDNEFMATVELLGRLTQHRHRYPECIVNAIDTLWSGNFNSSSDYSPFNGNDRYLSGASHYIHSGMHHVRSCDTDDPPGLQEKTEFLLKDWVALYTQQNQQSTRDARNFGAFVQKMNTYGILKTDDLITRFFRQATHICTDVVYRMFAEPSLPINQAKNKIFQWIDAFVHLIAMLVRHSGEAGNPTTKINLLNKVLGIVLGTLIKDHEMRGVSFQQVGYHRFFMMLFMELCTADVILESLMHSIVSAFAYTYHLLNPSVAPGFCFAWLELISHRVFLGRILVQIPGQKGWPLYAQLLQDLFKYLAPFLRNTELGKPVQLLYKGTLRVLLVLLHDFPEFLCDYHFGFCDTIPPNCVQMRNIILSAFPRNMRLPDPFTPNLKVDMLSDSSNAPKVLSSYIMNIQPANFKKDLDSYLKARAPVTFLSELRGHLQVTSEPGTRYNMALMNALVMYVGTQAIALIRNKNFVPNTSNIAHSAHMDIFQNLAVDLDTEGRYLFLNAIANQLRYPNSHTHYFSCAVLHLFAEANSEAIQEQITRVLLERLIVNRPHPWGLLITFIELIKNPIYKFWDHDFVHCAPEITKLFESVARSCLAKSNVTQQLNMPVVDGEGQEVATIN

T2: NOT2 (subunit of the Drosophila CCR4-NOT core complex) (Drosophila) (UniProt Q94547)
T2 sequence: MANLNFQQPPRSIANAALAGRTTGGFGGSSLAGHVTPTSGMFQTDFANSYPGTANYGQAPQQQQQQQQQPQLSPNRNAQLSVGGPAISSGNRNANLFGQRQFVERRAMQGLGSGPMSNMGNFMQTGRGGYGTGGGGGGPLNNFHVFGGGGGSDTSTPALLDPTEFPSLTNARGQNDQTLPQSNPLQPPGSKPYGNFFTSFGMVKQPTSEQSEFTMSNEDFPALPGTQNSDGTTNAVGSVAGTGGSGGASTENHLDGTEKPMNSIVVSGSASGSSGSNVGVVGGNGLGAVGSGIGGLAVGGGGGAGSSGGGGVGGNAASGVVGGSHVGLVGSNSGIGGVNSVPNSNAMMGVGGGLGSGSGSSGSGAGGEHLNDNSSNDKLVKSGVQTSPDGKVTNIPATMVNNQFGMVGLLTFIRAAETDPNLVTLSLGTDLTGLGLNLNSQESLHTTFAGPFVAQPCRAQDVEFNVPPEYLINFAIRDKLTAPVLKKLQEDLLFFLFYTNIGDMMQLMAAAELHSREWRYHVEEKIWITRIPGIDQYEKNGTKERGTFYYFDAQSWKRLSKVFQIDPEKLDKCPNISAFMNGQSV

B1: DEAD-box RNA helicase Me31B (protein, UniProt P23128 1-459)
chain: MMTEKLNSGHTNLTSKGIINDLQIAGNTSDDMGWKSKLKLPPKDNRFKTTDVTDTRGNEFEEFCLKRELLMGIFEKGWERPSPIQEAAIPIALSGKDVLARAKNGTGKTGAYCIPVLEQIDPTKDYIQALVMVPTRELALQTSQICIELAKHLDIRVMVTTGGTILKDDILRIYQKVQLIIATPGRILDLMDKKVADMSHCRILVLDEADKLLSLDFQGMLDHVILKLPKDPQILLFSATFPLTVKNFMEKHLREPYEINLMEELTLKGVTQYYAFVQERQKVHCLNTLFSKLQINQSIIFCNSTQRVELLAKKITELGYCCYYIHAKMAQAHRNRVFHDFRQGLCRNLVCSDLFTRGIDVQAVNVVINFDFPRMAETYLHRIGRSGRFGHLGIAINLITYEDRFDLHRIEKELGTEIKPIPKVIDPALYVANVGASVGDTCNNSDLNNSANEEGNVSK
B2: eukaryotic translation initiation factor 4E (eIF4E) (protein, UniProt P48598 1-259)
chain: MQSDFHRMKNFANPKSMFKTSAPSTEQGRPEPPTSAAAPAEAKDVKPKEDPQETGEPAGNTATTTAPAGDDAVRTEHLYKHPLMNVWTLWYLENDRSKSWEDMQNEITSFDTVEDFWSLYNHIKPPSEIKLGSDYSLFKKNIRPMWEDAANKQGGRWVITLNKSSKTDLDNLWLDVLLCLIGEAFDHSDQICGAVINIRGKSNKISIWTADGNNEEAALEIGHKLRDALRLGRNNSLQYQLHKDTMVKQGSNVKSIYTL
B3: Drosophila Nanos (protein, UniProt P25724 1-401)
chain: MFRSNLEGSGAAAVGVANPPSLAQSGKIFQLQDNFSAFHARGGLNILGLQDMYLDTSGANSSATLSPPITPVTPDPSTSAQSTHFPFLADSAATANSLLMQRQYHYHLLLQQQQQLAMAQHQLALAASAAAASASHQQTDEIARSLKIFAQVTTGAAENAAGSMQDVMQEFATNGYASDDLGRMSYGSAPPQVQMPPQQQHQQQQGLHLPLGRNPAQLQTNGGNLMPIPLATHWLNNYREHLNNVWRNMSYIPAAPNTMGLQAQTAATVSTNLGVGMGLGLPVQGEQLRGASNSSNNNNNNNKVYKRYNSKAKEISRHCVFCENNNEPEAVINSHSVRDNFNRVLCPKLRTYVCPICGASGDSAHTIKYCPKKPIITMEDAIKAESFRLAKSSYYKQQMKV
B4: Drosophila Cup (protein, UniProt Q9VMA3 1-1117)
chain: T1 sequence
B5: NOT2 (subunit of the Drosophila CCR4-NOT core complex) (protein, UniProt Q94547 1-585)
chain: T2 sequence
B6: Drosophila Bag-of-marbles (Bam) (protein, UniProt P22745 1-442)
chain: MLNARDVCPEGNDDQQLDHNFKQMEEHLALMVEGNENEDPRKATCEYEDTNEDGATCTSGVLSEIQENFGRLRLCDVTAPLLEFHGLDCLQQIQKRSRHFAFDGSPAKKSRSGGVLVTGPKQKQLQKENVWNRKSKGSASADNIEKLPITIEKLHMIGLHGDCLEHNAVLRLMNLFRSLHDHLTADLGFSRQNSMPSDYLFDMPVKSTMPKSLNVRYQLQVLCTKVERFLVQQRRTLEANRHFDFEKYDECDKLLKGFASYLDNFKLLLKPKMRNRNGNSGSNADKFHTQRMERLLIGLRDWIKAAHLSVHVFNWEMDLEHRYSGAMTESHKSLNERAILLSGAELRAAEARGISAEDLFIAQRYKLGGPIYCVLEQHEFLSALIANPETYFPPSVVAICGPQKLGAVSMEQPSASEEEFEETEEVPSSPPRHTGRVPRFRS

These results are taken from paper doi:10.1101/2022.03.04.482790.

These are yes or no findings as the source states them, for the method shown. Some binding calls cover weakened binding; strength is not graded here.

In one test the target is T1, Drosophila Cup (Drosophila). The test is described as follows: ReLo.
For the molecule B1, the binding entry is recorded as “binds”.

In the case of B2, the binding entry is “binds”.

For B3, the binding entry is “binds”.

The target in the next test is NOT1 (subunit of the Drosophila CCR4-NOT core complex) (Drosophila) (UniProt A8DY81). Briefly: ReLo.
As to B4, the binding entry was “no binding”.

Take B3: the binding result is “binds”.

For B5, the binding entry is on record as “binds”.

Consider B6, for which the binding entry is given as “no binding”.

The target in the next test is T2, NOT2 (subunit of the Drosophila CCR4-NOT core complex) (Drosophila). The test is described as follows: ReLo.
Turning to B4, the binding result is “no binding”.

As for B3, the binding result is reported as “no binding”.

As for B6, the binding result is “no binding”.
